{
  "source": "the supplement of paper PMC11348887",
  "note": "Counter-ions that a name gives are not always drawn. Some of the results follow. Small differences around the control level are noise.",
  "data": [
    {"system": "hPSC-derived cortical neurons (WA09)", "test": "KCl-induced FOS+/EGR-1+ double-positive nuclei fraction z-score (KCl minus unstimulated); higher = stronger activity-induced IEG response", "conditions": "5 µM; treatment: days 7-14 after plating, readout day 21", "values": [
      {"compound": "CN(C)CCC(c1ccc(Cl)cc1)c1ccccn1", "note": "(configuration not stated) [Chlorpheniramine Maleate]", "KCl-induced FOS+/EGR-1+ double-positive nuclei fraction z-score": 0.356},
      {"compound": "COc1ccc(S(=O)(=O)Nc2cccnc2Nc2ccc(O)cc2)cc1", "KCl-induced FOS+/EGR-1+ double-positive nuclei fraction z-score": -2.32},
      {"compound": "CC[C@]1(O)C[C@@H]2CN(CCc3c([nH]c4ccccc34)[C@@](C(=O)OC)(c3cc4c(cc3OC)N(C)[C@H]3[C@@](O)(C(=O)OC)[C@H](OC(C)=O)[C@]5(CC)C=CCN6CC[C@]43[C@@H]65)C2)C1", "note": "[Vinblastine sulfate]", "KCl-induced FOS+/EGR-1+ double-positive nuclei fraction z-score": -0.721},
      {"compound": "CCc1nc(N)nc(N)c1-c1ccc(Cl)cc1", "note": "[Pyrimethamine]", "KCl-induced FOS+/EGR-1+ double-positive nuclei fraction z-score": -0.694},
      {"compound": "CC1=C(CC(=O)O)c2cc(F)ccc2/C1=C\\c1ccc([S+](C)[O-])cc1", "note": "(configuration not stated) [Sulindac]", "KCl-induced FOS+/EGR-1+ double-positive nuclei fraction z-score": 0.101},
      {"compound": "CC(=O)OCC(=O)[C@@]1(O)CC[C@H]2[C@@H]3CCC4=CC(=O)CC[C@]4(C)[C@H]3C(=O)C[C@@]21C", "note": "[Cortisone acetate]", "KCl-induced FOS+/EGR-1+ double-positive nuclei fraction z-score": -0.387},
      {"compound": "Cn1cc(-c2ccc(F)c(C(F)(F)F)c2)nc1C1CCN(c2ncnc3[nH]ncc23)CC1", "KCl-induced FOS+/EGR-1+ double-positive nuclei fraction z-score": 0.0726},
      {"compound": "CC(C)(C)c1ccc(C(O)CCCN2CCC(C(O)(c3ccccc3)c3ccccc3)CC2)cc1", "note": "(configuration not stated) [Terfenadine]", "KCl-induced FOS+/EGR-1+ double-positive nuclei fraction z-score": -0.69},
      {"compound": "CCN[C@@H]1C[C@H](N)[C@@H](O[C@H]2OC(CN)=CC[C@H]2N)[C@H](O)[C@H]1O[C@H]1OC[C@](C)(O)[C@H](NC)[C@H]1O", "note": "[Netilmicin Sulfate]", "KCl-induced FOS+/EGR-1+ double-positive nuclei fraction z-score": -0.634},
      {"compound": "N#C/C(=C(/N)Sc1ccc(N)cc1)c1ccccc1C(F)(F)F", "KCl-induced FOS+/EGR-1+ double-positive nuclei fraction z-score": 0.798},
      {"compound": "O=C(CNc1ccc2ccccc2c1)N/N=C/c1cc(Br)c(O)c(Br)c1O", "KCl-induced FOS+/EGR-1+ double-positive nuclei fraction z-score": -0.443},
      {"compound": "COC(=O)C1=C(C)NC(C)=C(C(=O)OC2CCCN(Cc3ccccc3)C2)C1c1cccc([N+](=O)[O-])c1", "note": "(configuration not stated) [Benidipine HCl]", "KCl-induced FOS+/EGR-1+ double-positive nuclei fraction z-score": -0.391}
    ]}
  ]
}
